The source of these data is PMC5818066.

By UniProt entry, the sequences of proteins in these tests, tags left out. Where a name states a change or a piece, a line headed by the entry shows the natural chain unless it says otherwise.
UniProt O76447: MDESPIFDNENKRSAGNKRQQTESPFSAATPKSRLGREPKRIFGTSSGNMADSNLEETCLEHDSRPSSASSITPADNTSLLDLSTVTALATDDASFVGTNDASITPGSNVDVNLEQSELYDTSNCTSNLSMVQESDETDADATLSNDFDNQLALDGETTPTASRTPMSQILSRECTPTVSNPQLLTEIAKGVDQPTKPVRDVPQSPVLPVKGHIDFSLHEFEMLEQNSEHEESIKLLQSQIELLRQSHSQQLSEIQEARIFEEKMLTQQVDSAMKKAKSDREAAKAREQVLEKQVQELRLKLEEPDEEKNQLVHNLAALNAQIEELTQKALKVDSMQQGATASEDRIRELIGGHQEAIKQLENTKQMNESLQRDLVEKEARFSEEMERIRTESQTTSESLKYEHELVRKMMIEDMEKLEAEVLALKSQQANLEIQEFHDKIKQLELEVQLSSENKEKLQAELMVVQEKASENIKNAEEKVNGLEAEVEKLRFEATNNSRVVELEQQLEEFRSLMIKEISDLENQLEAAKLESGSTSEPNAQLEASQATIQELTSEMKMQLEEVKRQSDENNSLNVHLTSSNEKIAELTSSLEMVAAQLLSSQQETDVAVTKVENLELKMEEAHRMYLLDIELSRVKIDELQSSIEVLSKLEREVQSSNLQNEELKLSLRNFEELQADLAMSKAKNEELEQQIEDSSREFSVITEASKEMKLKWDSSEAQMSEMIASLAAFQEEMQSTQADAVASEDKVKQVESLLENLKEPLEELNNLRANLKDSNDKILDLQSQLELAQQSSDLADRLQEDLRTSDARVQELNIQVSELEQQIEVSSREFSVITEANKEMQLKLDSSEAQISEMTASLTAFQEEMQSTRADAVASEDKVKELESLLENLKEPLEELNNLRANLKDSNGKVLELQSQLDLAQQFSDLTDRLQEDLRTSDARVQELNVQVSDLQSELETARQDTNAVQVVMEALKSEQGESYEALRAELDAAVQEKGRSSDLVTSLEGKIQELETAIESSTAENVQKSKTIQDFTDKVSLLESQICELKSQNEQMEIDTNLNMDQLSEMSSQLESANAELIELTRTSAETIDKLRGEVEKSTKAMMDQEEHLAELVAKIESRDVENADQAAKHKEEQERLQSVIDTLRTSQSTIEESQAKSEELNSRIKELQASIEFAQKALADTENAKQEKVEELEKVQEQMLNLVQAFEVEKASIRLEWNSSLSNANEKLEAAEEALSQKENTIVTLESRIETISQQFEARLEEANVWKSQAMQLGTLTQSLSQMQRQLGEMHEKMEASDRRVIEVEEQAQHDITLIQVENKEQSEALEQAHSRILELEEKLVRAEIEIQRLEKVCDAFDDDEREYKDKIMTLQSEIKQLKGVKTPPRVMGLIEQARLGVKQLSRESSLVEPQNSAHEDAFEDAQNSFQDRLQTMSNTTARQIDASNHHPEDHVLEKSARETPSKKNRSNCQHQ

These are yes or no findings as the source states them, for the method shown. Binding can be weak; no strength is given.

The test deals with T1, NUD-2 (C. elegans NudE/L homolog) (C. elegans) (UniProt O45717).
T1 sequence: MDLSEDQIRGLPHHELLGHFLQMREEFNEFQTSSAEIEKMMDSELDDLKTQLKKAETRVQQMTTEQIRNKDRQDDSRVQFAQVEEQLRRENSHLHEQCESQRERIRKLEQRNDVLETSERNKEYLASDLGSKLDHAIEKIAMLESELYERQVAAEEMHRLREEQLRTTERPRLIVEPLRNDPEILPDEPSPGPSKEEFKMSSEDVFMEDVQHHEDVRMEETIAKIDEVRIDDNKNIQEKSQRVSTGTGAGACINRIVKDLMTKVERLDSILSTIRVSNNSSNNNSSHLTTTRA
As to the kind of experiment: two-hybrid; yeast two-hybrid (Matchmaker); bait in pGBKT7, prey in pGADT7; growth on -Leu/-Trp/-His plates selects for the interaction.

For “HCP-2 (CENP-F-like protein) (from UniProt Q22257)”, the binding result was “binds”.

For the substance “HCP-1 (CENP-F-like protein) (from UniProt O76447)”, the binding entry is given as “binds”.
